These are yes or no findings as the source states them, for the method shown. In cells and extracts the contact can be indirect. Some entries that bind do so weakly or less than the wild type.
Tests used:
[1] = biological target: GST-HIF-1a (C-TAD domain of HIF-1a fused to the C-terminus of glutathione S-transferase) (Homo sapiens); assay: co-expression and co-purification in E. coli
[2] = biological target: GST-HIF-1a (C-TAD domain of HIF-1a fused to the C-terminus of glutathione S-transferase) (Homo sapiens); assay: coexpression in E. coli, glutathione agarose pull-down, SDS-PAGE
[3] = biological target: GST-HIF-1a (C-TAD domain of HIF-1a fused to the C-terminus of glutathione S-transferase) (Homo sapiens); assay: glutathione column co-purification from E. coli lysates, SDS-PAGE (coomassie)

Chains of the proteins cited; added tags and fusions are not shown. Residues count along the entry.
UniProt Q09472, residues 323-423: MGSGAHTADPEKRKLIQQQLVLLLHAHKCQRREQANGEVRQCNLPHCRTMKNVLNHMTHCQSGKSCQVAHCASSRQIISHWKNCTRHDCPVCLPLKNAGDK

- binding [1]: binds
- binding [2]: binds
- binding [3]: binds
Substance: CH1 domain of p300 (from UniProt Q09472 323-423)
